# Experimental data as given in PubChem BioAssay AID2685 (National Center for Advancing Translational Sciences (NCATS), 2010).
# Some of the results follow. Further columns of the screen follow, without active or inactive calls. Compounds called inactive in the main read-out are mostly missing here. Words in brackets tell the shape of the fitted curve; partial curves, single points and poor fits give uncertain potencies.
# Experiment: qHTS Assay for Lipid Storage Modulators in Drosophila S3 Cells;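 as to cell number change: cells counted by Cell Tracker Red CMTPX staining in the red channel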
# Conditions: BODIPY lipid droplet fluorescence, 18-24 h; for cell number change: measured here: cell count max response, cells fed with added oleic acid
# Method in brief: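 Drosophila S3 cells loaded with oleic acid (400 uM, as added) and compounds at several concentrations; lipid droplets imaged by 488-nm laser-scanning cytometry, 500–530 nm intensity and object ratio to cell channel. Percent activity normalized to 20 uM Triacsin C.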
# [1] = measured here: lipid fluorescence (Fed channel) AC50, cells fed with added oleic acid
# [2] = measured here: cell number channel AC50, cells fed with added oleic acid
Structure (SMILES),AC50 [1],cell number change [%],AC50 [2]
C/C(=N/NC(=O)CCC(=O)Nc1cccc(Cl)c1)c1ccc(C)cc1,"29.1 µM [rising, partial curve, poor fit]",,
O=C(/C=C/c1ccccc1)NCC(=O)N/N=C/c1cccs1,,18.4,
O=C(NCc1ccc(Cl)cc1)NCc1ccc(Cl)cc1,"4.11 µM [rising, partial curve, poor fit]",8.28,
CC(Cc1cccs1)NC(=O)Nc1ccc([N+](=O)[O-])cc1 (stereo not drawn),"1.16 µM [rising, full curve, poor fit]",49,"0.00517 µM [rising, full curve, poor fit]"
CCOC(=O)c1cc(C#N)c(SCC(=O)Nc2ccc(C(C)=O)cc2)[nH]c1=O,,4.91,
O=C(COC(=O)c1c[nH]c(=O)[nH]c1=O)NCc1ccccc1,,-17,
Cc1cc(C)cc(NC(=O)CCN2CCOCC2)c1,"0.731 µM [falling, single point]",9.59,
CCN(CC)S(=O)(=O)c1ccc(O)c(C(=O)OCC(=O)N2CCCC2)c1,"0.82 µM [falling, full curve]",-0.451,
Cc1ccc(C)c(OCC(=O)N2CCN(C(=O)c3ccco3)CC2)c1,"6.51 µM [rising, partial curve]",26.7,
Oc1ccc(Cl)cc1N=Cc1sc2ccccc2c1Cl,"0.00461 µM [rising, full curve, poor fit]",1.77,
O=C(O)CNS(=O)(=O)c1ccc(F)cc1,"3.66 µM [falling, full curve]",-24.6,
COc1cc(C(=O)n2cnc3ccccc32)c([N+](=O)[O-])cc1OC,,-5.28,
O=C(CC1Nc2cccc3cccc(c23)NC1=O)Nc1ccc(F)cc1 (stereo not drawn),,-16,
CCN1CCN(c2ccc(S(=O)(=O)N3CCCCC3)cc2NC(=O)Cc2ccc(OC)cc2)CC1,,-13.1,
COc1ccc(/C=C2/C(=O)N(Cc3ccccc3)N=C2C)cc1,"0.92 µM [falling, full curve, poor fit]",78.4,"20.6 µM [rising, single point]"
Cc1cc(C)cc(OCC(=O)OCC(=O)NC2CCCCCC2)c1,"20.6 µM [rising, single point]",-10.7,
COCCn1c(SCc2cc(=O)n3cc(C)ccc3n2)nc2ccccc2c1=O,,100,"25.9 µM [rising, single point]"
C/C(=N/NC(=O)C1CC1(c1ccccc1)c1ccccc1)c1ccco1 (stereo not drawn),"8.2 µM [rising, partial curve, poor fit]",5.39,
O=C(CSC1=NCCS1)Nc1nc2c(s1)CCCC2,"29.1 µM [rising, single point]",17.5,

# Some of these compounds in order of number of heavy atoms, ascending:
Structure (SMILES),AC50 [1],cell number change [%],AC50 [2]
O=C(O)CNS(=O)(=O)c1ccc(F)cc1,"3.66 µM [falling, full curve]",-24.6,
Cc1cc(C)cc(NC(=O)CCN2CCOCC2)c1,"0.731 µM [falling, single point]",9.59,
COc1cc(C(=O)n2cnc3ccccc32)c([N+](=O)[O-])cc1OC,,-5.28,
